# Laboratory results from PubChem BioAssay (EPA / NIEHS).
# The chains behind the UniProt entries cited, without tags or fusion partners. Where a name states a change or a piece, a line headed by the entry shows the natural chain unless it says otherwise.
# UniProt P22909, whole entry, looked up: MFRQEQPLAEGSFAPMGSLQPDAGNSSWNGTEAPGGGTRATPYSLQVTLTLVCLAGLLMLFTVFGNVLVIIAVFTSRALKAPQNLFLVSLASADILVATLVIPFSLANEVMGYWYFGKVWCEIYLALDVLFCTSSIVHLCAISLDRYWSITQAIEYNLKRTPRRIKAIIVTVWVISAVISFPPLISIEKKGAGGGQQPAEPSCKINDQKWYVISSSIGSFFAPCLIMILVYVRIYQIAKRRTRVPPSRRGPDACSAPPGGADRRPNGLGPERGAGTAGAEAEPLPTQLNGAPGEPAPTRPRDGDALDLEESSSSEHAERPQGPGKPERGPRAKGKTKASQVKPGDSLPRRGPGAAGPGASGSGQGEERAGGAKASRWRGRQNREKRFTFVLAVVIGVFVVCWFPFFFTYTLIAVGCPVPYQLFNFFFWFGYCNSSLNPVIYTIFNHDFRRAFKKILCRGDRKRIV
# UniProt P31652, whole entry, looked up: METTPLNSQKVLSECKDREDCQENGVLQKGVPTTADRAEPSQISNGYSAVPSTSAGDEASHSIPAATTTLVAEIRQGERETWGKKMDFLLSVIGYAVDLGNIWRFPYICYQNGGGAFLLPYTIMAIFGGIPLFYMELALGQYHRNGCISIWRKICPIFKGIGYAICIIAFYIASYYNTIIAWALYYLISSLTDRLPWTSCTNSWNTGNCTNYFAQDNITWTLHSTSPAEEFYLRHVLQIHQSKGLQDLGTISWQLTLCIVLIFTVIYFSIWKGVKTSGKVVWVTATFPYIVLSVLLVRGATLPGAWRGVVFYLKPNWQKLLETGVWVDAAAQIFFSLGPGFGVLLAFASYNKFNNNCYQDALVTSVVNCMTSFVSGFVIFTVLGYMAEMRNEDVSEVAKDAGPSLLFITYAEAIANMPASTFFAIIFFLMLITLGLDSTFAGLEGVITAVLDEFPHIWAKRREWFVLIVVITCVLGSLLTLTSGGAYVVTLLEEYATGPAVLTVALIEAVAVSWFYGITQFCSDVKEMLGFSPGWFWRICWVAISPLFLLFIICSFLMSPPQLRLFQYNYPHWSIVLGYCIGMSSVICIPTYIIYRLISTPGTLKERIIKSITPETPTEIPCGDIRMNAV
# UniProt P23975, whole entry, looked up: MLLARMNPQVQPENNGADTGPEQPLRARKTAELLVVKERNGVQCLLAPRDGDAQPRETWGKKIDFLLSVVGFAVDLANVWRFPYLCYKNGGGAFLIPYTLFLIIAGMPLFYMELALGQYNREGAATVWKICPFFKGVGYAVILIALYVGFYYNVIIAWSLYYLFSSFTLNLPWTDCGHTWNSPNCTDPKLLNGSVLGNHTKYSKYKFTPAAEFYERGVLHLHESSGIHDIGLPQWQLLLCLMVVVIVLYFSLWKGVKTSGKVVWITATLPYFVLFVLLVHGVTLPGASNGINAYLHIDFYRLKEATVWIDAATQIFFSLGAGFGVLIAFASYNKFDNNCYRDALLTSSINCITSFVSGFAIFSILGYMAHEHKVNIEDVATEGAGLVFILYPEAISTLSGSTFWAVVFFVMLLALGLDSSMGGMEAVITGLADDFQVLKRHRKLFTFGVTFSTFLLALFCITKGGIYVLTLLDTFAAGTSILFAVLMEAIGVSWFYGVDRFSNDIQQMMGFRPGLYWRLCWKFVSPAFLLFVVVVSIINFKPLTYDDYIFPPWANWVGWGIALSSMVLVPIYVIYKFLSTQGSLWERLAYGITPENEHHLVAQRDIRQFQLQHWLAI
# UniProt P48730: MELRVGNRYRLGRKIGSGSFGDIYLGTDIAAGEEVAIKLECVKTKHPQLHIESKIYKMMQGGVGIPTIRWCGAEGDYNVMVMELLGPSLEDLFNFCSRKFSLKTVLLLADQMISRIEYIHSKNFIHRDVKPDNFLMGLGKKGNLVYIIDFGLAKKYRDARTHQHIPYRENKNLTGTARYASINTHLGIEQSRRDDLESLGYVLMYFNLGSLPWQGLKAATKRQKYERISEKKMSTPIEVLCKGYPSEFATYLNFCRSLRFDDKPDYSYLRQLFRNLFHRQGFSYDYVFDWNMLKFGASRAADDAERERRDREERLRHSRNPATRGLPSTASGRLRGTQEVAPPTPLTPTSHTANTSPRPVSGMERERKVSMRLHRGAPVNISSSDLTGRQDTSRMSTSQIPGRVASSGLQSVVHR
# UniProt P04629: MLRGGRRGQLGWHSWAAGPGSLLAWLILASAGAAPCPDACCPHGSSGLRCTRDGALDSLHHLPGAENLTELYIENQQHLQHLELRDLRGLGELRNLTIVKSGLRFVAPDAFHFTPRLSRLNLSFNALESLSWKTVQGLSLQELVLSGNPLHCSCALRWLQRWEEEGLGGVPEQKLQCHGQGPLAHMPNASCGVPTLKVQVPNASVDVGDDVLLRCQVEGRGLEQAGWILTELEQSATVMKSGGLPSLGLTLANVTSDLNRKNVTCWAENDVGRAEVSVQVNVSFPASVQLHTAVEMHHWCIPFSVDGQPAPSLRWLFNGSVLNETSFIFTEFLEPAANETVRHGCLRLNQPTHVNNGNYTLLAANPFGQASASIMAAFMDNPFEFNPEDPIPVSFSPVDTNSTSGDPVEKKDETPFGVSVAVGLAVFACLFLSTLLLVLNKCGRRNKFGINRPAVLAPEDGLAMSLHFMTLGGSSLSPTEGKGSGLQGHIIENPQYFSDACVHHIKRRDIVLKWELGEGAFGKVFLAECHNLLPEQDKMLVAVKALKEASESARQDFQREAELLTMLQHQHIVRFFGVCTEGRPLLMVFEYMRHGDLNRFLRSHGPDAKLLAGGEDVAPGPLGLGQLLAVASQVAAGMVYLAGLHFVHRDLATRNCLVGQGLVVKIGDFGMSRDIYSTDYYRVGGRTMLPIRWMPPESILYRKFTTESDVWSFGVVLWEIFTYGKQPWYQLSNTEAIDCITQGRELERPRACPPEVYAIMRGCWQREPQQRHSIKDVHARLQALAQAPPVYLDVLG
# UniProt P18031: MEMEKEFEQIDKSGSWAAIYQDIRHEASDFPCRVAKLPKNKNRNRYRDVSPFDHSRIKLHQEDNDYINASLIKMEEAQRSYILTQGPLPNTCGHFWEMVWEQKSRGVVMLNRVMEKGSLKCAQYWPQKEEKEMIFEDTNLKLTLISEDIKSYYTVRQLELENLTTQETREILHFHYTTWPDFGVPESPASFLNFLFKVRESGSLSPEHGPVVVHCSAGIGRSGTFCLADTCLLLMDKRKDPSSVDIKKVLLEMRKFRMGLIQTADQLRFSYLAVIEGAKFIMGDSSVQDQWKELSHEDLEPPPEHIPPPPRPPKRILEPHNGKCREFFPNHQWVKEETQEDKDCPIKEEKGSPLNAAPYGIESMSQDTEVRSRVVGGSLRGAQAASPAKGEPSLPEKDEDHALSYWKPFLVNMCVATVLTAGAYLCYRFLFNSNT
# UniProt P62813: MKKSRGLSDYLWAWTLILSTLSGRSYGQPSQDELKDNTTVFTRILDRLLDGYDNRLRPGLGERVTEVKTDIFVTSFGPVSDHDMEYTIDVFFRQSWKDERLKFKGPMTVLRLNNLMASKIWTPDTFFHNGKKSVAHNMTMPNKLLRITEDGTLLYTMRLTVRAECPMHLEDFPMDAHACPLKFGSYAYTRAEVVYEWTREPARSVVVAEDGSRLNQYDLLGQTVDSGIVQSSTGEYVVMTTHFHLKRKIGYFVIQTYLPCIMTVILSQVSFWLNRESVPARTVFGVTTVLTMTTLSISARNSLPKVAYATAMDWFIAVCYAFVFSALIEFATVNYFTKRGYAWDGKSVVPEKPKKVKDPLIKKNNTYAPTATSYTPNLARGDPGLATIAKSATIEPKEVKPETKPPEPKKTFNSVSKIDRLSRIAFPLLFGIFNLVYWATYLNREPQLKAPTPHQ
# This list was built around the results that the source calls inconclusive (neither active nor inactive); the mix of calls is not that of the screen. For some of these results: Potencies beside an inconclusive call are fits to weak or partial responses and may not hold up. Activity calls are given as the source filed them. The calls were made as follows: active = hit-call score of the fitted dose curve at least 0.9, where 1 is the maximum; inconclusive = response in the unintended direction; inactive = score below 0.9.
# Key:
# [1] = biological target: rat Adrenergic Receptor, Alpha 2 (Adra2), Non-selective Binding, Adra2a (gene 25083) (UniProt P22909); test: NVS_GPCR_rAdra2_NonSelective: NovaScreen (NVS) G Protein-Coupled Receptor Assay for rat Adrenergic Receptor, Alpha 2 (Adra2), Non-selective Binding (AID 2283299)
# How it was run: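 Filter-based scintillation counting of radioligand binding to rat cortical membrane receptors, measured 1.25 hours post-dosing; loss of signal versus DMSO indicates displacement. Initial single-concentration duplicate at 25 uM, then concentration series.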
# [2] = biological target: rat Serotonin Transporter (SERT), Slc6a4 (gene 25553) (UniProt P31652); test: NVS_TR_rSERT: NovaScreen (NVS) Transporter Assay for rat Serotonin Transporter (SERT) (AID 2283375)
# How it was run: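 Radioligand binding with competitive displacement on rat forebrain membrane preparations, counted by filtration and scintillation after 1 h. Primary single-point duplicates at 25 uM; active chemicals followed up in concentration-response. DMSO served as baseline.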
# [3] = biological target: human Norepinephrine Transporter (NET), SLC6A2 (gene 6530) (UniProt P23975); test: NVS_TR_hNET: NovaScreen (NVS) Transporter Assay for human Norepinephrine Transporter (NET) (AID 2283377);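 also: cell-free membrane protein extracted from CHO cells expressing human NET; displacement of radioligand from human NET seen as loss of scintillation signal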
# How it was run: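 CHO cell extracts expressing the transporter; tritiated or iodinated tracer displaced competitively; filtration plus scintillation readout at 1 h. Single-point duplicates at 25 uM, concentration series for follow-up; activity = signal drop relative to DMSO.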
# [4] = biological target: human Casein Kinase 1-delta (CK1D), CSNK1D (gene 1453) (UniProt P48730); test: NVS_ENZ_hCK1D: NovaScreen (NVS) Enzymatic Assay for human Casein Kinase 1-delta (CK1D) (AID 2283148)
# How it was run: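 Recombinant human CK1-delta, cell-free; fluorescent substrate with electrophoretic mobility-shift separation of product, read 1 h after dosing. Single 25 uM duplicate screen, then concentration-response up to 50 uM; loss of signal vs DMSO.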
# [5] = biological target: human c-Jun N-terminal Kinases (JNK2), MAPK9 (gene 5601) (UniProt P45984); test: NVS_ENZ_hJNK2: NovaScreen (NVS) Enzymatic Assay for human c-Jun N-terminal Kinases (JNK2) (AID 2283171)
# How it was run: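 Chemicals first tested in duplicate at 25 uM, then in singleton concentration series up to 50 uM, against extracted JNK2 enzyme. Activity loss read by fluorescence with mobility-shift separation 1 h post-dose; DMSO baseline.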
# [6] = biological target: human Tropomyosin Receptor Kinase A (TRKA), NTRK1 (gene 4914) (UniProt P04629); test: NVS_ENZ_hTrkA: NovaScreen (NVS) Enzymatic Assay for human Tropomyosin Receptor Kinase A (TRKA) (AID 2283224)
# How it was run: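 Compounds were screened at 25 uM in duplicate, then concentration series to a 50 uM top for those meeting threshold (e.g. 30% inhibition). Enzyme was recombinant human TrkA, incubated 1 h. Product formation was quantified by fluorescence after mobility-shift separation.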
# [7] = ArunA_CellTiter_hNC: Viability Assessment in the ArunA Biomedical's Oris Neural Crest (hNC) Cell Migration Assay (AID 2283752)
# How it was run: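 Seed 60,000 hNC cells per well onto Matrigel in basal growth medium containing LIF and bFGF. Incubate 16 h at 37C. Replace with test medium containing chemical for 72 h, then assess viability by CellTiter Aqueous One.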
# [8] = ArunA_CellTiter_hNP: Viability Assessment in the ArunA Biomedical's Oris Neural Crest (hNC) Cell Migration Assay (AID 2283753)
# How it was run: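 Viability read with CellTiter 96 Aqueous One after 72 h chemical exposure of human hNP1 neuroprogenitors, which were plated on Matrigel in LIF/bFGF medium 16 h beforehand. Endpoint fitted in positive direction relative to DMSO.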
# [9] = ArunA_Migration_hNP: ArunA Biomedical's Oris Neuroprogenitor (hNP) Cell Migration Assay (AID 2283754)
# How it was run: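 Readout is calcein-AM fluorescence (ex494/em517) of cells migrating into the detection zone, relative to DMSO. hNP1 cells (H9-derived) grown on Matrigel behind stoppers 16 h, then stoppers pulled and chemical applied 72 h; cytochalasin D as control.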
# [10] = ArunA_NOG_NeuriteLength: ArunA Biomedical's Neurite Outgrowth (NOG) Assay for Neurite Length (AID 2283757)
# How it was run: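 Total neurite length per neuron, from traced βIII-tubulin-labelled processes longer than 10 um on viable Hoechst-gated cells, was scored as decrease from DMSO. Cells were hESC (H9)-derived neurons given 48 h chemical exposure immediately after seeding.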
# [11] = TAMU_HCS_1.5hr_SingleDonor1434_Cytotoxicity: Cytotoxicity Assessment using High-content Screening (HCS) Fluorescent Imaging for the Texas A&M University (TAMU) 1.5-hr Human Induced Pluripotent Stem Cell (iPSC)-derived Cardiotoxicity Assay (AID 2284234)
# How it was run: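 Nuclear counts from Hoechst 33342 imaging define cytotoxicity here, with EC10 (10% cell-count loss relative to DMSO) as point of departure. iPSC cardiomyocytes received 0.2-100 uM test chemical in 0.5% DMSO for 1.5 h at 37 C.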
# [12] = CCTE_Mundy_HCI_Cortical_NOG_NeuronCount: CCTE's Neurite Outgrowth Assay in rat cortical cells for Neuron Count, Mundy Lab (AID 2284236);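 also: neurons counted by imaging betaIII-tubulin and Hoechst stained cortical cells; cells exposed to compound for about 48 hours before fixation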
# How it was run: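 Read-out: neuron number by high-content imaging of betaIII-tubulin (Alexa Fluor-488) and Hoechst-labelled rat primary cortical cells.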
# [13] = VALA_TUBHUV_Antagonist_CellCount: Viability Assessment in the VALA Sciences human Umbilical Vein Endothelial Tubule Formation (TUBHUV) Antagonism Assay (AID 2284310)
# How it was run: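 Read-out is imaged cell count after nuclear and CD31 staining, fitted against 0.1% DMSO vehicle. Compounds were added for 3 days, in 10 ng/ml VEGF assay medium, to HUVEC–HDF co-cultures pre-grown 3 days.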
# [14] = VALA_MIGHUV2_CellCount: Viability Assessment in the VALA Sciences human Umbilical Vein Endothelial Cell Migration (MIGHUV) Assay, Area of Scratch Wound after Recovery (AID 2284314)
# How it was run: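 Viability read-out: Hoechst-stained nuclei counted by fluorescence imaging after a 24 h recovery period in fixed, scratched HUVEC plates. Compound was dosed within 30 min of scratching at six concentrations (triplicate); DMSO at 0.1 % served as baseline.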
# [15] = VALA_MIGHUV2_Bcatenin: VALA Sciences human Umbilical Vein Endothelial Cell Migration (MIGHUV) Assay, Nuclear Translocation of beta-Catenin after Recovery (AID 2284315)
# How it was run: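 Nuclear beta-catenin imaged by immunofluorescence with Hoechst counterstain in fixed HUVEC, 24 h after scratch wounding and chemical addition. Six-point concentration-response in triplicate; activity scored as signal increase over 0.1% DMSO vehicle.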
# [16] = VALA_MIGHUV2_WoundArea: VALA Sciences human Umbilical Vein Endothelial Cell Migration (MIGHUV) Assay, Area of Scratch Wound after Recovery (AID 2284316)
# How it was run: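 Wound-area endpoint read by fluorescence imaging of Hoechst-stained nuclei after a 24 h recovery period following scratch of HUVEC monolayers (9000 cells/well). Chemicals dosed within 30 min post-scratch, triplicate 6-point series, 0.1% DMSO vehicle; Cytochalasin D positive control.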
# [17] = VALA_TUBHUV_Antagonist_TubuleLength: VALA Sciences human Umbilical Vein Endothelial Tubule Formation (TUBHUV) Antagonism Assay (AID 2284325)
# How it was run: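 Tubule length was imaged via CD31 immunofluorescence after a further 3-day compound exposure in 10 ng/ml VEGF, following 3-day pre-culture of HUVEC with HDF at 1:3. Vehicle 0.1% DMSO; suramin (100 uM) inhibition control.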
# [18] = VALA_MIGHUV1_ScratchOnly_CellCount: Viability Assessment in the VALA Sciences human Umbilical Vein Endothelial Cell Migration (MIGHUV) Assay, Scratch Wound Inhibited Recovery (AID 2284327)
# How it was run: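 Hoechst-stained nuclei in the scratch wound were counted by high-content imaging after a 24 h recovery period. Scratched HUVEC monolayers received 6-point concentration series, triplicate, in 0.1% DMSO, fit against DMSO.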
# [19] = biological target: human Protein Tyrosine Phosphatase Non-receptor Type 1 (PTPN1), PTPN1 (gene 5770) (UniProt P18031); test: NVS_ENZ_hPTPN1: NovaScreen (NVS) Enzymatic Assay for human Protein Tyrosine Phosphatase Non-receptor Type 1 (PTPN1) (AID 2283201)
# How it was run: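 Chemicals were first tested in duplicate at 25 uM, and those passing threshold went on to singleton concentration series topping at 50 uM. Recombinant enzyme, specific substrate, product separated by mobility shift, fluorescence read at 1.33 h; activity loss relative to DMSO.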
# [20] = biological target: rat Gamma-Aminobutyric Acid Type A Receptor, Non-Selective (GABAR-NonSelective), Gabra1 (gene 29705) (UniProt P62813); test: NVS_LGIC_rGABAR_NonSelective: NovaScreen (NVS) Ligand-Gated Ion Channel Assay for rat Gamma-Aminobutyric Acid Type A Receptor, Non-Selective (GABAR-NonSelective) (AID 2283326)
# How it was run: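 Compounds were first screened in duplicate at 25 uM, with actives run as singleton concentration series (max 50 uM). Binding of a radioligand to rat whole-brain GABA-A preparation was measured by filtration and scintillation counting after 1 h, DMSO baseline.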
smiles,measurement,setting,value
CCCCCCCC(=O)O,AC50,[1],inconclusive: 6.87 µM
same,outcome,[2],inactive
CC(C)Cc1ccccc1,outcome,[2],inactive
CC1(C)C(=O)N(CO)C(=O)N1CO,AC50,[3],inconclusive: 25 µM
CCCC(CCC)C(=O)O,AC50,[4],inconclusive: 164 nM
same,outcome,[5],inactive
same,outcome,[6],inactive
same,outcome,[7],inactive
same,outcome,[8],inactive
same,AC50,[9],inconclusive: 9.92 µM
same,AC50,[10],active: 77.4 µM
same,AC50,[11],inconclusive: 50 µM
same,AC50,[12],inconclusive: 3.22 nM
same,outcome,[13],inactive
same,AC50,[14],inconclusive: 50 µM
same,AC50,[15],inconclusive: 9.34 nM
same,AC50,[16],inconclusive: 50 µM
same,outcome,[17],inactive
same,AC50,[18],inconclusive: 11.9 nM
Cc1ncc([C@@H](CCCCCCc2ccc3c(n2)NCCC3)CC(=O)O)cn1,AC50,[4],inconclusive: 311 nM
same,AC50,[5],inconclusive: 25 µM
same,AC50,[19],inconclusive: 5.9 µM
same,AC50,[20],inconclusive: 497 nM
COc1cc2c(c(OC)c1OC)-c1ccc(OC)c(=O)cc1[C@@H](NC(C)=O)CC2,AC50,[11],inconclusive: 0.01 µM
same,AC50,[12],active: 53.5 nM
NCCO,AC50,[19],inconclusive: 25 µM
same,AC50,[6],inconclusive: 7.68 µM
same,AC50,[20],inconclusive: 194 nM
Nc1cccc(N)n1,AC50,[1],inconclusive: 0.438 µM
CC[C@H](C)C(=O)O[C@H]1C[C@H](O)C=C2C=C[C@H](C)[C@H](CC[C@@H](O)C[C@@H](O)CC(=O)O)[C@H]21,AC50,[3],inconclusive: 25 µM
OCCNCCO,AC50,[7],inconclusive: 9.92 µM
same,AC50,[8],inconclusive: 215 nM
same,AC50,[9],inconclusive: 0.12 µM
same,AC50,[10],active: 24.8 µM
same,outcome,[13],inactive
same,AC50,[14],inconclusive: 0.00129 µM
same,AC50,[15],inconclusive: 1.29 nM
same,AC50,[16],inconclusive: 0.0061 µM
same,AC50,[17],inconclusive: 50 µM
same,AC50,[18],inconclusive: 8.84 nM

# Looked up one by one from the list above:
smiles,measurement,setting,value
COc1cc2c(c(OC)c1OC)-c1ccc(OC)c(=O)cc1[C@@H](NC(C)=O)CC2,AC50,[12],active: 53.5 nM
CCCC(CCC)C(=O)O,AC50,[18],inconclusive: 11.9 nM
